Test results from the supplement of paper PMC8728848.
The list shows a part of the results.

Experiments:
Assay in all cases: glycan array binding signal (z-score within array); higher = stronger binding
Conditions in all cases: glycan notation: IUPAC condensed, linker removed; mutation: D21K
Neu5Ac(a2-3)Gal = molecular target: Neu5Ac(a2-3)Gal
Procedure, shortened: (§1)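 The Consortium for Functional Glycomics database supplied 3228 glycan arrays, of which those lacking an available protein sequence were dropped. The binding signal, a within-array Z-score, was averaged across arrays of the same protein sequence and across linkers. Negative scores can be read as non-binding.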

[1] = molecular target: Neu5Ac(a2-3)Gal(b1-3)GalNAc
Procedure, shortened: as §1

[2] = molecular target: Neu5Ac(a2-3)Gal(b1-3)GalNAc(b1-3)Gal(a1-4)Gal(b1-4)Glc
Procedure, shortened: as §1

[3] = molecular target: Neu5Ac(a2-3)Gal(b1-3)GalNAc(b1-4)Gal(b1-4)Glc
Procedure, shortened: as §1

[4] = molecular target: Neu5Ac(a2-3)Gal(b1-3)GalNAc(b1-4)[Neu5Ac(a2-3)]Gal(b1-4)Glc
Procedure, shortened: as §1

[5] = molecular target: Neu5Ac(a2-3)Gal(b1-3)GalNAc(b1-4)[Neu5Ac(a2-8)Neu5Ac(a2-3)]Gal(b1-4)Glc
Procedure, shortened: as §1

[6] = molecular target: Neu5Ac(a2-3)Gal(b1-3)GalNAc6S
Procedure, shortened: as §1

[7] = molecular target: Neu5Ac(a2-3)Gal(b1-3)GlcNAc
Procedure, shortened: as §1

[8] = molecular target: Neu5Ac(a2-3)Gal(b1-3)GlcNAc(b1-2)Man
Procedure, shortened: as §1

[9] = molecular target: Neu5Ac(a2-3)Gal(b1-3)GlcNAc(b1-2)Man(a1-3)[GlcNAc(b1-4)][Neu5Ac(a2-3)Gal(b1-3)GlcNAc(b1-2)Man(a1-6)]Man(b1-4)GlcNAc(b1-4)GlcNAc
Procedure, shortened: as §1

[10] = molecular target: Neu5Ac(a2-3)Gal(b1-3)GlcNAc(b1-2)Man(a1-3)[Neu5Ac(a2-3)Gal(b1-3)GlcNAc(b1-2)Man(a1-6)]Man(b1-4)GlcNAc(b1-4)GlcNAc
Procedure, shortened: as §1

[11] = molecular target: Neu5Ac(a2-3)Gal(b1-3)GlcNAc(b1-2)[Neu5Ac(a2-3)Gal(b1-3)GlcNAc(b1-4)]Man(a1-6)[Neu5Ac(a2-3)Gal(b1-3)GlcNAc(b1-2)Man(a1-3)]Man(b1-4)GlcNAc(b1-4)GlcNAc
Procedure, shortened: as §1

[12] = molecular target: Neu5Ac(a2-3)Gal(b1-3)GlcNAc(b1-3)Gal(b1-3)GlcNAc
Procedure, shortened: as §1

[13] = molecular target: Neu5Ac(a2-3)Gal(b1-3)GlcNAc(b1-3)Gal(b1-4)GlcNAc
Procedure, shortened: as §1

[14] = molecular target: Neu5Ac(a2-3)Gal(b1-3)GlcNAc(b1-3)GalNAc
Procedure, shortened: as §1

[15] = molecular target: Neu5Ac(a2-3)Gal(b1-3)GlcNAc(b1-6)GalNAc
Procedure, shortened: as §1

[16] = molecular target: Neu5Ac(a2-3)Gal(b1-3)GlcNAc6S
Procedure, shortened: as §1

[17] = molecular target: Neu5Ac(a2-3)Gal(b1-3)[Fuc(a1-4)]GlcNAc
Procedure, shortened: as §1

[18] = molecular target: Neu5Ac(a2-3)Gal(b1-3)[Fuc(a1-4)]GlcNAc(b1-3)Gal(b1-3)[Fuc(a1-4)]GlcNAc
Procedure, shortened: as §1

[19] = molecular target: Neu5Ac(a2-3)Gal(b1-3)[Fuc(a1-4)]GlcNAc(b1-3)Gal(b1-4)[Fuc(a1-3)]GlcNAc
Procedure, shortened: as §1

[20] = molecular target: Neu5Ac(a2-3)Gal(b1-3)[GlcNAc(b1-6)]GalNAc
Procedure, shortened: as §1

[21] = molecular target: Neu5Ac(a2-3)Gal(b1-3)[Neu5Ac(a2-6)]GalNAc
Procedure, shortened: as §1

[22] = molecular target: Neu5Ac(a2-3)Gal(b1-3)[Neu5Ac(a2-6)]GlcNAc(b1-3)[Fuc(a1-3)[Gal(b1-4)]GlcNAc(b1-6)]Gal(b1-4)Glc
Procedure, shortened: as §1

[23] = molecular target: Neu5Ac(a2-3)Gal(b1-3)]Neu5Ac(a2-3)Gal(b1-4)]GlcNAc
Procedure, shortened: as §1

Neu5Ac(a2-3)Gal(b1-4)Glc = molecular target: Neu5Ac(a2-3)Gal(b1-4)Glc
Procedure, shortened: as §1

[24] = molecular target: Neu5Ac(a2-3)Gal(b1-4)GlcNAc
Procedure, shortened: as §1

[25] = molecular target: Neu5Ac(a2-3)Gal(b1-4)GlcNAc(b1-2)Man
Procedure, shortened: as §1

[26] = molecular target: Neu5Ac(a2-3)Gal(b1-4)GlcNAc(b1-2)Man(a1-3)[GlcNAc(b1-4)][Neu5Ac(a2-3)Gal(b1-4)GlcNAc(b1-2)Man(a1-6)]Man(b1-4)GlcNAc(b1-4)GlcNAc
Procedure, shortened: as §1

[27] = molecular target: Neu5Ac(a2-3)Gal(b1-4)GlcNAc(b1-2)Man(a1-3)[Neu5Ac(a2-3)Gal(b1-4)GlcNAc(b1-2)Man(a1-6)]Man(b1-4)GlcNAc(b1-4)GlcNAc
Procedure, shortened: as §1

[28] = molecular target: Neu5Ac(a2-3)Gal(b1-4)GlcNAc(b1-2)Man(a1-3)[Neu5Ac(a2-3)Gal(b1-4)GlcNAc(b1-2)Man(a1-6)]Man(b1-4)GlcNAc(b1-4)[Fuc(a1-6)]GlcNAc
Procedure, shortened: as §1

[29] = molecular target: Neu5Ac(a2-3)Gal(b1-4)GlcNAc(b1-2)Man(a1-3)[Neu5Ac(a2-6)Gal(b1-4)GlcNAc(b1-2)Man(a1-6)]Man(b1-4)GlcNAc(b1-4)GlcNAc
Procedure, shortened: as §1

[30] = molecular target: Neu5Ac(a2-3)Gal(b1-4)GlcNAc(b1-2)[Neu5Ac(a2-3)Gal(b1-4)GlcNAc(b1-4)]Man(a1-3)[GlcNAc(b1-4)][Neu5Ac(a2-3)Gal(b1-4)GlcNAc(b1-2)[Neu5Ac(a2-3)Gal(b1-4)GlcNAc(b1-6)]Man(a1-6)]Man(b1-4)GlcNAc(b1-4)GlcNAc
Procedure, shortened: as §1

[31] = molecular target: Neu5Ac(a2-3)Gal(b1-4)GlcNAc(b1-2)[Neu5Ac(a2-3)Gal(b1-4)GlcNAc(b1-4)]Man(a1-3)[GlcNAc(b1-4)][Neu5Ac(a2-3)Gal(b1-4)GlcNAc(b1-4)Man(a1-6)]Man(b1-4)GlcNAc(b1-4)GlcNAc
Procedure, shortened: as §1

[32] = molecular target: Neu5Ac(a2-3)Gal(b1-4)GlcNAc(b1-2)[Neu5Ac(a2-3)Gal(b1-4)GlcNAc(b1-6)]Man(a1-6)[Neu5Ac(a2-3)Gal(b1-4)GlcNAc(b1-2)Man(a1-3)][GlcNAc(b1-4)]Man(b1-4)GlcNAc(b1-4)GlcNAc
Procedure, shortened: as §1

[33] = molecular target: Neu5Ac(a2-3)Gal(b1-4)GlcNAc(b1-3)Gal
Procedure, shortened: as §1

[34] = molecular target: Neu5Ac(a2-3)Gal(b1-4)GlcNAc(b1-3)Gal(b1-3)GlcNAc
Procedure, shortened: as §1

[35] = molecular target: Neu5Ac(a2-3)Gal(b1-4)GlcNAc(b1-3)Gal(b1-4)GlcNAc
Procedure, shortened: as §1

[36] = molecular target: Neu5Ac(a2-3)Gal(b1-4)GlcNAc(b1-3)Gal(b1-4)GlcNAc(b1-2)Man(a1-3)[Neu5Ac(a2-3)Gal(b1-4)GlcNAc(b1-3)Gal(b1-4)GlcNAc(b1-2)Man(a1-6)]Man(b1-4)GlcNAc(b1-4)GlcNAc
Procedure, shortened: as §1

[37] = molecular target: Neu5Ac(a2-3)Gal(b1-4)GlcNAc(b1-3)Gal(b1-4)GlcNAc(b1-3)Gal(b1-4)GlcNAc
Procedure, shortened: as §1

[38] = molecular target: Neu5Ac(a2-3)Gal(b1-4)GlcNAc(b1-3)Gal(b1-4)GlcNAc(b1-3)Gal(b1-4)GlcNAc(b1-2)Man(a1-3)[Neu5Ac(a2-3)Gal(b1-4)GlcNAc(b1-3)Gal(b1-4)GlcNAc(b1-3)Gal(b1-4)GlcNAc(b1-2)Man(a1-6)]GalNAc
Procedure, shortened: as §1

[39] = molecular target: Neu5Ac(a2-3)Gal(b1-4)GlcNAc(b1-3)Gal(b1-4)GlcNAc(b1-3)GalNAc
Procedure, shortened: as §1

[40] = molecular target: Neu5Ac(a2-3)Gal(b1-4)GlcNAc(b1-3)Gal(b1-4)GlcNAc(b1-3)[Neu5Ac(a2-3)Gal(b1-4)GlcNAc(b1-3)Gal(b1-4)GlcNAc(b1-6)]GalNAc
Procedure, shortened: as §1

[41] = molecular target: Neu5Ac(a2-3)Gal(b1-4)GlcNAc(b1-3)Gal(b1-4)GlcNAc(b1-6)[Gal(b1-3)]GalNAc
Procedure, shortened: as §1

[42] = molecular target: Neu5Ac(a2-3)Gal(b1-4)GlcNAc(b1-3)Gal(b1-4)[Fuc(a1-3)]GlcNAc
Procedure, shortened: as §1

[43] = molecular target: Neu5Ac(a2-3)Gal(b1-4)GlcNAc(b1-3)GalNAc
Procedure, shortened: as §1

[44] = molecular target: Neu5Ac(a2-3)Gal(b1-4)GlcNAc(b1-3)[Neu5Ac(a2-3)Gal(b1-4)GlcNAc(b1-6)]GalNAc
Procedure, shortened: as §1

For KILRGVCKKIMRTFLRRISKKILTGKK [C7A (Sus scrofa)], which “glycan array binding signal (z-score)” value (Neu5Ac(a2-3)Gal) is on record?
The value was -0.224.

What about the “glycan array binding signal (z-score)” value [1] of the same binder?
The value was -0.285.

And the “glycan array binding signal (z-score)” value [2]?
The value was 0.404.

And the “glycan array binding signal (z-score)” value [3]?
Its value is -0.925.

What about the “glycan array binding signal (z-score)” value [4] of the same binder?
Its value is 1.17.

And the “glycan array binding signal (z-score)” value [5]?
Its value is -0.201.

What about the “glycan array binding signal (z-score)” value [6] of the same binder?
Its value is -0.478.

And the “glycan array binding signal (z-score)” value [7]?
The value was 1.04.

What about the “glycan array binding signal (z-score)” value [8] of the same binder?
Its value is 0.216.

And the “glycan array binding signal (z-score)” value [9]?
Its value is -0.465.

What about the “glycan array binding signal (z-score)” value [10] of the same binder?
The value was -1.49.

And the “glycan array binding signal (z-score)” value [11]?
Its value is 0.661.

And the “glycan array binding signal (z-score)” value [12]?
The value was 0.309.

What about the “glycan array binding signal (z-score)” value [13] of the same binder?
The value was 0.978.

And the “glycan array binding signal (z-score)” value [14]?
The value was 1.71.

And the “glycan array binding signal (z-score)” value [15]?
The value was 2.06.

What about the “glycan array binding signal (z-score)” value [16] of the same binder?
The value was 1.71.

And the “glycan array binding signal (z-score)” value [17]?
Its value is -0.097.

And the “glycan array binding signal (z-score)” value [18]?
The value was 0.741.

What about the “glycan array binding signal (z-score)” value [19] of the same binder?
The value was 0.502.

What about the “glycan array binding signal (z-score)” value [20] of the same binder?
The value was 0.8.

And the “glycan array binding signal (z-score)” value [21]?
Its value is -0.339.

What about the “glycan array binding signal (z-score)” value [22] of the same binder?
The value was -0.761.

And the “glycan array binding signal (z-score)” value [23]?
Its value is 1.16.

And the “glycan array binding signal (z-score)” value (Neu5Ac(a2-3)Gal(b1-4)Glc)?
The value was 0.135.

And the “glycan array binding signal (z-score)” value [24]?
Its value is -0.603.

And the “glycan array binding signal (z-score)” value [25]?
The value was 0.786.

And the “glycan array binding signal (z-score)” value [26]?
The value was 0.307.

What about the “glycan array binding signal (z-score)” value [27] of the same binder?
The value was -0.248.

And the “glycan array binding signal (z-score)” value [28]?
Its value is 1.41.

What about the “glycan array binding signal (z-score)” value [29] of the same binder?
The value was -1.09.

And the “glycan array binding signal (z-score)” value [30]?
Its value is -0.005.

And the “glycan array binding signal (z-score)” value [31]?
Its value is 0.079.

And the “glycan array binding signal (z-score)” value [32]?
The value was 0.142.

What about the “glycan array binding signal (z-score)” value [33] of the same binder?
Its value is 0.067.

And the “glycan array binding signal (z-score)” value [34]?
Its value is -1.04.

What about the “glycan array binding signal (z-score)” value [35] of the same binder?
The value was -0.607.

What about the “glycan array binding signal (z-score)” value [36] of the same binder?
The value was 0.393.

What about the “glycan array binding signal (z-score)” value [37] of the same binder?
Its value is -0.012.

What about the “glycan array binding signal (z-score)” value [38] of the same binder?
The value was 0.291.

And the “glycan array binding signal (z-score)” value [39]?
Its value is 2.25.

And the “glycan array binding signal (z-score)” value [40]?
Its value is -0.329.

What about the “glycan array binding signal (z-score)” value [41] of the same binder?
The value was 0.156.

What about the “glycan array binding signal (z-score)” value [42] of the same binder?
Its value is 0.25.

And the “glycan array binding signal (z-score)” value [43]?
The value was 0.438.

And the “glycan array binding signal (z-score)” value [44]?
Its value is 1.35.
